Measurements reported in PMC12059206.
No constants are given. Whether binding was seen depends on the method and setting. Binding seen in cells or lysates may run through a third protein. Some entries that bind do so weakly or less than the wild type. Sequences can lack the tags named with a protein.

Chains of the proteins cited; added tags and fusions are not shown.
UniProt Q06413: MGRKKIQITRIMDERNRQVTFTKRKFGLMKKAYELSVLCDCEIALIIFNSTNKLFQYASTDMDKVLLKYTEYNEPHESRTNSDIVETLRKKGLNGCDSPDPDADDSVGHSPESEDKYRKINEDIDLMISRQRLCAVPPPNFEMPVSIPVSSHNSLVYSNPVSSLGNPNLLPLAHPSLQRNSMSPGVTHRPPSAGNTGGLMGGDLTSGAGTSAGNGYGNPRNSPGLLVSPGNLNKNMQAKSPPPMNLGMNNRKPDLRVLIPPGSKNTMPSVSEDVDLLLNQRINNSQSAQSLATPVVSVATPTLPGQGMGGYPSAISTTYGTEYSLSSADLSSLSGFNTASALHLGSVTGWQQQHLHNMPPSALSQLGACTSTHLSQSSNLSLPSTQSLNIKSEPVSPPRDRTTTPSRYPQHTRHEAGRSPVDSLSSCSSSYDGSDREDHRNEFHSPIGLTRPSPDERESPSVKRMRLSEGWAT

Target: T1, FLAG-tagged SENP1 (UniProt Q9P0U3)
T1 sequence: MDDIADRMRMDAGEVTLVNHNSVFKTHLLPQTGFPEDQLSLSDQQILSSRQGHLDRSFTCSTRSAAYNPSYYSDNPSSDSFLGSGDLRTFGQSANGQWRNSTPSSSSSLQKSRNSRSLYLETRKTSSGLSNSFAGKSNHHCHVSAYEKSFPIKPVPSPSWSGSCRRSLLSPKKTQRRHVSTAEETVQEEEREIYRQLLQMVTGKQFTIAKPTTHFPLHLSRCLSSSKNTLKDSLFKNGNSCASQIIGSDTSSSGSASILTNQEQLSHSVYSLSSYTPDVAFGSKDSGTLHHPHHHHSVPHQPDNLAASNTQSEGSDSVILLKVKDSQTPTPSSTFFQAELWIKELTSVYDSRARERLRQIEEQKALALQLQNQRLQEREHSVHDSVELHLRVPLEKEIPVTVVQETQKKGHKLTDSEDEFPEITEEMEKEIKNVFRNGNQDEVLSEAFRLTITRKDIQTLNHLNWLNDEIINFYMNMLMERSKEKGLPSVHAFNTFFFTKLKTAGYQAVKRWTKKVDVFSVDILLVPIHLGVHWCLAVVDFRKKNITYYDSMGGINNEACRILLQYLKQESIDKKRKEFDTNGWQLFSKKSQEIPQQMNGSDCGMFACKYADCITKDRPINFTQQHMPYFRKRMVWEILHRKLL
Assay: co-IP; exogenously expressed proteins in HEK293T cells; NP-40 lysis buffer; supernatant incubated with anti-FLAG M2 Affinity Gel overnight at 4°C; washed four times; western blotting

binding: binds
Substance: MEF2C (from UniProt Q06413 1-473)
